From the supplement of paper PMC12067093, “Discovery and optimisation of a covalent ligand for TRIM25 and its application to targeted protein ubiquitination” (Chemical Science, 2025)
The other results are listed elsewhere or left out.

Chains of the proteins cited; added tags and fusions are not shown. Lines headed by an entry give the natural chain unless they say otherwise; changes in a name come on top.
UniProt Q9NVZ3: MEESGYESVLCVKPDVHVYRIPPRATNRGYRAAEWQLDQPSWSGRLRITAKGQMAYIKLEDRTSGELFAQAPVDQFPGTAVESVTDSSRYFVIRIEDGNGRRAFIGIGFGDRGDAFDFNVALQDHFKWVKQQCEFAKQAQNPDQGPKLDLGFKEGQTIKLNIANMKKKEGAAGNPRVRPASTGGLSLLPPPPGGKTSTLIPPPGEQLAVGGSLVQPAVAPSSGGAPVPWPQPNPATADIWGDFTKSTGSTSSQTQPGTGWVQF
UniProt Q6ZNB6: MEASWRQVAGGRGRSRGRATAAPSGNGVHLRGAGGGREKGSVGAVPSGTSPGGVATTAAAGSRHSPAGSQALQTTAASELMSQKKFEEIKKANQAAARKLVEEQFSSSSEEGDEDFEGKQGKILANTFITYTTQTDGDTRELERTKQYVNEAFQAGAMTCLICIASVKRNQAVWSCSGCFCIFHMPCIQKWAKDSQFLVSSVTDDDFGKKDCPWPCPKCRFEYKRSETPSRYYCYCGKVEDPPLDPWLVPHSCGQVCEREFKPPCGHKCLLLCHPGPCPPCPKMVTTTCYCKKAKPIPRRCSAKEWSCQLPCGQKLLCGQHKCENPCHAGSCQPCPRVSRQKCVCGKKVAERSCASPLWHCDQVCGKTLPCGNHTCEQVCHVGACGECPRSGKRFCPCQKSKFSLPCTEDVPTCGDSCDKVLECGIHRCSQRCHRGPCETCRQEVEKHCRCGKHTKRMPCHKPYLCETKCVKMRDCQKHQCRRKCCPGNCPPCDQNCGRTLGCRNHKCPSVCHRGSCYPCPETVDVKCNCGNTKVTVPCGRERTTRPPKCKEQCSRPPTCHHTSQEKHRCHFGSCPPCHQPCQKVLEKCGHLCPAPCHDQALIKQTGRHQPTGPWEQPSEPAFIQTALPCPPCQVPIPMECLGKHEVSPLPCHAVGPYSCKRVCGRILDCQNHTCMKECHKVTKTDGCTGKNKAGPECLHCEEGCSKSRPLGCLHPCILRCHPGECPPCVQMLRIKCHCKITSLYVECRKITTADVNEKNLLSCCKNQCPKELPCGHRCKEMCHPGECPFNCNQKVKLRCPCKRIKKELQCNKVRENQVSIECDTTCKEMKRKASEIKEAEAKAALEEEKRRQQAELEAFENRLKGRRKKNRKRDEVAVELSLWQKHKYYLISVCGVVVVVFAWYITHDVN
UniProt P51970, whole entry, looked up: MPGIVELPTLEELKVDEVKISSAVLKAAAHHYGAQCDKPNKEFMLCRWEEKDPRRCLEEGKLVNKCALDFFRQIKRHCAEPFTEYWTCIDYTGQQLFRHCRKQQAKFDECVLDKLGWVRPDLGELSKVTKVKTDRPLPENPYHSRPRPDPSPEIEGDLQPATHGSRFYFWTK
UniProt Q13469: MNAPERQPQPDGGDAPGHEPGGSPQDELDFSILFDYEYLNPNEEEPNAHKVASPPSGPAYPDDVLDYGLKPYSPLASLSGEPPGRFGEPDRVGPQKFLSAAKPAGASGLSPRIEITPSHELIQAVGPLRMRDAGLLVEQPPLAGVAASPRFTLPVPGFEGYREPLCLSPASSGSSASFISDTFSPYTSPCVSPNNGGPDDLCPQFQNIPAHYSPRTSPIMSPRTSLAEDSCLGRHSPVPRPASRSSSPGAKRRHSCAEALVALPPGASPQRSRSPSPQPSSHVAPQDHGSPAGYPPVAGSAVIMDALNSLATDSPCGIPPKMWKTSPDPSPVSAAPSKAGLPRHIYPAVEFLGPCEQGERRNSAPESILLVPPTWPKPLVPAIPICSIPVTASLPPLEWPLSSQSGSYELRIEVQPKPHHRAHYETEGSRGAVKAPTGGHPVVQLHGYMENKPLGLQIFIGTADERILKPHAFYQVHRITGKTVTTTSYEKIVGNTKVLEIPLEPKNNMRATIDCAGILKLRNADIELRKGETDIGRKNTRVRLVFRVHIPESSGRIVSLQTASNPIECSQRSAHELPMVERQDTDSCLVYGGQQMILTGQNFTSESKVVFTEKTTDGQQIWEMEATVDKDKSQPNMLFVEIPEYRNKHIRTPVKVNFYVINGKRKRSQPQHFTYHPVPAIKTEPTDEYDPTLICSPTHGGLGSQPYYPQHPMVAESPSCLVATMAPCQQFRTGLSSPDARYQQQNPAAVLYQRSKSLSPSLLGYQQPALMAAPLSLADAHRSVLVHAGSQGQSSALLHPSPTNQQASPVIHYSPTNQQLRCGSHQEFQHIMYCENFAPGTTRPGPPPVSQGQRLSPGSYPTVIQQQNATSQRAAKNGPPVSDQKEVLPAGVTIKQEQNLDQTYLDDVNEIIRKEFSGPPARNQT
UniProt Q9NQR4: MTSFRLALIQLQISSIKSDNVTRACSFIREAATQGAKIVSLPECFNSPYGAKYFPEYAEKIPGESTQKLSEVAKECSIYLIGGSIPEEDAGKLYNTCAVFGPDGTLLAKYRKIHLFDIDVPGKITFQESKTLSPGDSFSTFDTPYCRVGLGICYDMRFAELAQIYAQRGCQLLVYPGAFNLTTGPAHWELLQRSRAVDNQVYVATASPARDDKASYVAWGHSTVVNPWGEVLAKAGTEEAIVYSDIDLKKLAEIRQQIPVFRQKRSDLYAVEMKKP

Compound: Cc1cc(ccc1-c1ccccc1)C(=O)N1CCCN(CC1)C(=O)CCl [compound 10]
Assay: probe-labelled cysteine peptide fold change vs DMSO (competition) (log2 fold change); higher = less target engagement (more negative = stronger competition)
Details: THP-1, incubation time: 4 h
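Note: competitive profiling in live THP-1 cells: cysteine peptides tagged with an iodoacetamide desthiobiotin (IA-DTB) probe, intensity after compound treatment relative to DMSO-treated cells.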

NECAP2_Q9NVZ3_11_MEESGYESVLCVKPDVHVYR (UniProt Q9NVZ3)
probe-labelled cysteine peptide fold change (10 µM): -0.161
probe-labelled cysteine peptide fold change (50 µM): -0.0571

NFKBIA_P25963_167_GNTPLHLACEQGCLASVGVLTQSCTTPHLHSILK (UniProt P25963)
probe-labelled cysteine peptide fold change (10 µM): -0.33
probe-labelled cysteine peptide fold change (50 µM): -0.481

NFXL1_Q6ZNB6_371_TLPCGNHTCEQVCHVGACGECPR (UniProt Q6ZNB6)
probe-labelled cysteine peptide fold change (10 µM): 0.173
probe-labelled cysteine peptide fold change (50 µM): 0.0829

NDUFA8_P51970_110_FDECVLDK (UniProt P51970)
probe-labelled cysteine peptide fold change (10 µM): -0.333
probe-labelled cysteine peptide fold change (50 µM): 0.173

NFATC2_Q13469_569_IVSLQTASNPIECSQR (UniProt Q13469)
probe-labelled cysteine peptide fold change (10 µM): -0.0383
probe-labelled cysteine peptide fold change (50 µM): -0.18

NIT2_Q9NQR4_97_LYNTCAVFGPDGTLLAK (UniProt Q9NQR4)
probe-labelled cysteine peptide fold change (10 µM): 0.215
probe-labelled cysteine peptide fold change (50 µM): 0.125
